# Laboratory results taken from PubChem BioAssay AID2417 (National Center for Advancing Translational Sciences (NCATS), 2010).
# Among all 140,000 compounds or so, about 4,300 (3.1%) were called active. Inconclusive results, whose numbers are uncertain, are shown with a selection of clear calls.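 The calls were made as follows: active = readout at or below -70, meaning at least 70% loss of cells showing the perinucleolar compartment, a nuclear body marking cancer cells; inconclusive = readout between -30 and a set limit; inactive = the rest.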
# Test: High Content Assay for Compounds that inhibit the Assembly of the Perinucleolar Compartment;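 also: plate controls were DMSO wells for no effect and camptothecin positive control wells for full effect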
# Details: PC3M PTB-GFP, PNC prevalence imaging, 16 h; at 10 µM; stronger effect = lower value
# Summary of the method: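 Compounds are pinned in duplicate onto adhered PC3M cells stably expressing GFP-tagged PTB and incubated 16 h at 37 C. Cells are then fixed, nuclei stained with Hoechst, and PNC-positive cells counted.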
row,Structure (SMILES),"activity change (PNC), negative = inhibition"
1,Cc1cccc(NC(=O)N2CCCC2C(=O)NCc2cccs2)c1 (stereo not drawn),inconclusive: -63.5%
2,COc1cc([N+](=O)[O-])ccc1NC(=O)CCCOc1cccc(C)c1,inactive: -8.97%
3,Cc1ccc(S(=O)(=O)n2nc(OC(=O)c3c(-c4ccccc4Cl)noc3C)cc2N)cc1,inconclusive: -65.1%
4,CCOc1ccc(Nc2nc(Cc3nnc(SCC(=O)c4ccc(C)c(C)c4)o3)cs2)cc1,inconclusive: -44.4%
5,FC(F)(F)c1nnc2c(Sc3ccccn3)nc3ccccc3n12,inconclusive: -63.7%
6,CC(OC(=O)c1ccc2c(=O)n3c(nc2c1)CCCCC3)C(=O)Nc1ncc(Cl)cc1Cl (stereo not drawn),inconclusive: -30.8%
7,CCOC(=O)c1c(NC(=O)C(F)(OC)C(F)(F)F)sc2c1CCN(C)C2 (stereo not drawn),inactive: 2.2%
8,CC1(C)CC(NC(=O)C23CCC(C)(C(=O)C2)C3(C)C)CC(C)(C)N1 (stereo not drawn),inconclusive: -35.6%
9,COc1ccc2[nH]c(=O)c(CN(CCO)S(=O)(=O)c3ccc4c(c3)OCCO4)cc2c1,inconclusive: -36.9%
10,Cn1nnnc1SCC(=O)Nc1ccccc1[N+](=O)[O-],inactive: -23.2%
11,Cc1cc2cccc(C)c2nc1SCC(=O)N(C)c1nc(-c2ccccc2)cs1,inconclusive: -61.4%
12,CCC(=O)Nc1cccc(-c2nc3ccccc3o2)c1,inconclusive: -35.1%
13,O=[n+]1cc(-c2cccc3ccccc23)n([O-])c2c1CCC2,inactive: 5.69%
14,CC1C/C(=C\c2cccnc2)C(=O)/C(=C/c2cccnc2)C1 (stereo not drawn),active: -116%
15,Cc1ccc(S(=O)(=O)/C(C#N)=C/c2c(N3CCOCC3)nc3ccccn3c2=O)cc1,inconclusive: -33.3%
16,CC1(C(=O)NC2CCCCCCC2)CC1(Cl)Cl (stereo not drawn),inactive: 16.4%
17,COc1ccc2cnn(CCOc3cc(C)ccc3C(C)C)c(=O)c2c1OC,active: -113%
18,Cc1nc(N2CCN(C(=O)CCC(=O)O)CC2)c2c(C)c(C)sc2n1,inactive: 14.9%
19,COc1ccc(C(=O)Cc2ccc(OC)c(OC)c2)cc1,inconclusive: -72.6%
20,C=CCn1c(=S)[nH]c2sc3c(c2c1=O)CCC3,active: -109%
21,CC(C)(C)C1CCc2c(sc(NC(=O)c3ccncc3)c2C(N)=O)C1 (stereo not drawn),inconclusive: -39.4%
22,CC(=O)N(c1ccccc1)C1SC(=O)N(c2ccccc2)C1=O (stereo not drawn),inactive: -0.562%

# Exported tab-delimited: part of the list above.
row	Structure (SMILES)	activity change (PNC), negative = inhibition
5	FC(F)(F)c1nnc2c(Sc3ccccn3)nc3ccccc3n12	inconclusive: -63.7%
6	CC(OC(=O)c1ccc2c(=O)n3c(nc2c1)CCCCC3)C(=O)Nc1ncc(Cl)cc1Cl (stereo not drawn)	inconclusive: -30.8%
7	CCOC(=O)c1c(NC(=O)C(F)(OC)C(F)(F)F)sc2c1CCN(C)C2 (stereo not drawn)	inactive: 2.2%

# Later entries.

row,Structure (SMILES),"activity change (PNC), negative = inhibition"
1,CCc1ccc2nc3c(c(C(=O)O)c2c1)CCC3,inconclusive: -43.2%
2,O=C(CSc1nnc(-c2ccccn2)n1-c1ccc(Cl)cc1)Nc1ccc2c(c1)OCO2,inconclusive: -60.8%
3,CCOC(=O)C1CCN(CC(=O)Nc2c(C(=O)OC)[nH]c3ccccc23)CC1,inconclusive: -48.2%
4,CCc1c(C)sc(NC(=O)c2cc(-c3ccc(O)cc3)on2)c1C#N,inactive: 5.62%
5,C=CCn1c(SC(C)C(=O)NCc2ccc3c(c2)OCO3)nc2scc(-c3ccccc3)c2c1=O (stereo not drawn),inconclusive: -45.6%
6,Cn1c(=O)c2c(nc(-n3ccnc3)n2Cc2ccccc2)n(C)c1=O,inactive: -9.06%
7,CCOc1ccccc1OCC(=O)Nc1ccc(Cl)cc1Cl,inconclusive: -49.6%
8,Cc1ccc(S(=O)(=O)N2CCCCC2)cc1NC(=O)C1CC(=O)N(Cc2ccccc2)C1 (stereo not drawn),inconclusive: -48.1%
9,Cc1nn(C)c(C)c1S(=O)(=O)N1CCCC(C(=O)NC2CCCCC2)C1 (stereo not drawn),inconclusive: -59%
10,CC(C)CC1(C)NC(=O)NC1=O (stereo not drawn),inconclusive: -52.8%
11,O=C(CCN1C(=O)C2C3C=CC(C3)C2C1=O)Nc1nccs1 (stereo not drawn),inconclusive: -48.4%
12,COCCN(C(=O)Cc1cccs1)C(C(=O)NCc1ccc(OC)cc1)c1ccc(C(C)C)cc1 (stereo not drawn),inactive: 32.5%
13,O=C1CC(c2ccccc2)C(C(=O)O)N1 (stereo not drawn),inconclusive: -44.8%
14,C[N+]1=C(/C=C/Nc2ccccc2Cl)C(C)(C)c2ccccc21,inconclusive: -60.5%
15,CCOC(=O)c1ccc(S(=O)(=O)NNC(=O)COc2ccccc2C)cc1,inactive: 17.2%
16,O=S(=O)(c1cccc2nsnc12)N1CCCC1,inconclusive: -73.4%
17,COc1cccc(/C=N/Nc2ncc(C(F)(F)F)cc2Cl)c1O,active: -85.6%
18,Cc1ccc(C2=C/C(=C/c3cccnc3)C(=O)O2)c(C)c1,inconclusive: -56.9%
19,CC(=O)NC1=NN(C(C)=O)C(C)(c2ccccc2)S1 (stereo not drawn),inconclusive: -54.7%
20,Cc1ccc2cc(C(c3nnnn3C3CCCC3)N(Cc3ccco3)Cc3cccs3)c(=O)[nH]c2c1 (stereo not drawn),inconclusive: -30.4%
21,CCCOC(=O)c1cc(-c2ccc(C=O)o2)ccc1Cl,inconclusive: -30.5%
